Measured data: PubChem BioAssay AID504804 (Drosophila RNAi Screening Center, 2011)

Screen: 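Knock-downs shielding fly cells from apoptosis caused by DNA damage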 (primary screen)
Cell system: Drosophila Kc cells
Reagents: long dsRNA against Drosophila genes, 0.5 µg dsRNA per well
Duration: 96 h (48 h knock-down, then 48 h drug)
Treatment: doxorubicin 5 µg/ml for 48 h, added 48 h after dsRNA
Measurement: 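Viability measured as cellular ATP by luminescence after 48 h knock-down then 48 h doxorubicin at 5 µg/ml; unnormalised plate counts for each replicate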
Direction: raw ATP luminescence: higher = more viable cells, protection from doxorubicin
Call rule: 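z-score of 2 or more over plate mean in both duplicates, retained only when retests and separate dsRNAs confirm the protection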
The deposit covers about 19,000 reagents; this is an unselected part of those with a known target gene and a result. Over the whole deposit, 47 (0.25%) got an active call. 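Signals are raw, not normalised; exact z-scores behind calls not deposited; actives needed confirmation, so some wells reaching 2 SD are inactive.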 Names joined by + are all predicted targets of the reagent. Reagent sequences are not shown.

The opening 2 records, to show the layout:
RpL9 [DRSC03418] → raw ATP luminescence, replicate 1: 22020; raw ATP luminescence, replicate 2: 29060; outcome: inactive
CG13716 [DRSC08325] → raw ATP luminescence, replicate 1: 1.00e5; raw ATP luminescence, replicate 2: 95417; outcome: inactive

The list itself, from the start:
RpL9 [DRSC03418] → raw ATP luminescence, replicate 1: 22020; raw ATP luminescence, replicate 2: 29060; outcome: inactive
CG13716 [DRSC08325] → raw ATP luminescence, replicate 1: 1.00e5; raw ATP luminescence, replicate 2: 95417; outcome: inactive
mtTFB1 + Ccdc56 [DRSC10809] → raw ATP luminescence, replicate 1: 49293; raw ATP luminescence, replicate 2: 31957; outcome: inactive
CG11882 [DRSC14425] → raw ATP luminescence, replicate 1: 30940; raw ATP luminescence, replicate 2: 43720; outcome: inactive
CG16868 [DRSC06633] → raw ATP luminescence, replicate 1: 61600; raw ATP luminescence, replicate 2: 70423; outcome: inactive
CG6923 [DRSC16136] → raw ATP luminescence, replicate 1: 64770; raw ATP luminescence, replicate 2: 25100; outcome: inactive
CG18094 [DRSC02655] → raw ATP luminescence, replicate 1: 74083; raw ATP luminescence, replicate 2: 59533; outcome: inactive
Gnptab [DRSC07057] → raw ATP luminescence, replicate 1: 44883; raw ATP luminescence, replicate 2: 78207; outcome: inactive
CG34171 [DRSC01637] → raw ATP luminescence, replicate 1: 1.80e5; raw ATP luminescence, replicate 2: 1.86e5; outcome: inactive
Osi2 [DRSC12174] → raw ATP luminescence, replicate 1: 73437; raw ATP luminescence, replicate 2: 55913; outcome: inactive
Cdc6 [DRSC10563] → raw ATP luminescence, replicate 1: 35460; raw ATP luminescence, replicate 2: 43097; outcome: inactive
CG15296 [DRSC17983] → raw ATP luminescence, replicate 1: 3.53e5; raw ATP luminescence, replicate 2: 3.21e5; outcome: inactive
